The assay has as its target MyD88-HA, expressed from pcDNA3.1(+)-MyD88-HA (UniProt Q99836). Briefly: co-IP; COS7 cells transfected 48 h with pcDNA3.1(+)-MyD88-HA alone or together with pcDNA3.1(+)-Cbl-b-3×Flag; lysate incubated with anti-HA antibody 2 h at 4°C, protein A-agarose overnight at 4°C; Western blot with anti-Flag. A general note: A western blot detects proteins with antibodies after separation by electrophoresis.

The chains behind the UniProt entries cited, without tags or fusion partners.
UniProt Q99836: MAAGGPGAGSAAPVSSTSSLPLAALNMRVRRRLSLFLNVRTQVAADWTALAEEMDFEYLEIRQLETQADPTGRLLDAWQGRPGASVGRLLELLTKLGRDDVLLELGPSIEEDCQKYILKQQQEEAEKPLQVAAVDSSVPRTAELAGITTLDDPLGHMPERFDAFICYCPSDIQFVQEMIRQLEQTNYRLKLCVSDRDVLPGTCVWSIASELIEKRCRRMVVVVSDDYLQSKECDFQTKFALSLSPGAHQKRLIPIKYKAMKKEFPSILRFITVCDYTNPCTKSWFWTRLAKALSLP
UniProt Q13191: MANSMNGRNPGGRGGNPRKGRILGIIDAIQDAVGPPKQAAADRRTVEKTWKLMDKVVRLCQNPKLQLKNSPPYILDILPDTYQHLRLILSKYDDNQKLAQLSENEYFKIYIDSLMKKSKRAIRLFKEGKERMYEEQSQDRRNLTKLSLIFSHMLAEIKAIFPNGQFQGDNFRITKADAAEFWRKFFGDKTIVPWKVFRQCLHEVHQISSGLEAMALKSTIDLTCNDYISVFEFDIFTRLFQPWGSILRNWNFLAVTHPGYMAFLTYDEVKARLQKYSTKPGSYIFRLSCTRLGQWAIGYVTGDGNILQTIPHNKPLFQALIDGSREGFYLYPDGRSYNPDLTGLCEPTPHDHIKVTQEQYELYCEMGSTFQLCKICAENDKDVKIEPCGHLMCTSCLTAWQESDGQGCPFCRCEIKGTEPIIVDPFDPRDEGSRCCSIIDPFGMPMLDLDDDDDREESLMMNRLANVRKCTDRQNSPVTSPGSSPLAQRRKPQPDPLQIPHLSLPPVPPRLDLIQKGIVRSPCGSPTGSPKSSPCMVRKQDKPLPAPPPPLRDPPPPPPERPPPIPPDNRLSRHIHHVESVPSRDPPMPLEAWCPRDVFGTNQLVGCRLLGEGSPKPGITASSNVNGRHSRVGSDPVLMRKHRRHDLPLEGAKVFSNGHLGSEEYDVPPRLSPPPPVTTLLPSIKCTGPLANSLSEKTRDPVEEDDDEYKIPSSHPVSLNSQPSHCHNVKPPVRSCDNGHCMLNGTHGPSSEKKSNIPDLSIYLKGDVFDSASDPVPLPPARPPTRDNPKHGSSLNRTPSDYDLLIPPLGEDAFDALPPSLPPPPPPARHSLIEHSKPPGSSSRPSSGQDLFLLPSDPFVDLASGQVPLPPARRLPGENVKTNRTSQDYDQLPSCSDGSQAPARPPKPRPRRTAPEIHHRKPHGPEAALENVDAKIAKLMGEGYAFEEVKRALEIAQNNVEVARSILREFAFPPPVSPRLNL

These are yes or no findings as the source states them, for the method shown. In cells and extracts the contact can be indirect. Some entries that bind do so weakly or less than the wild type.

Take “Cbl-b-3×FLAG, expressed from pcDNA3.1(+)-Cbl-b-3×FLAG (from UniProt Q13191 1-982)”: the binding entry is “binds”.

For the origin of these results see article PMC10714978.
